Assay results taken from article PMC12376677.
Results are given in words; binding and its absence hold for the method and conditions named. Binding seen in cells or lysates may run through a third protein. These calls come from enrichment with a bait or labelling near it, and not all partners need be listed.

Chains of the proteins cited; added tags and fusions are not shown. Lines headed by an entry give the natural chain unless they say otherwise; changes in a name come on top.
UniProt O75925: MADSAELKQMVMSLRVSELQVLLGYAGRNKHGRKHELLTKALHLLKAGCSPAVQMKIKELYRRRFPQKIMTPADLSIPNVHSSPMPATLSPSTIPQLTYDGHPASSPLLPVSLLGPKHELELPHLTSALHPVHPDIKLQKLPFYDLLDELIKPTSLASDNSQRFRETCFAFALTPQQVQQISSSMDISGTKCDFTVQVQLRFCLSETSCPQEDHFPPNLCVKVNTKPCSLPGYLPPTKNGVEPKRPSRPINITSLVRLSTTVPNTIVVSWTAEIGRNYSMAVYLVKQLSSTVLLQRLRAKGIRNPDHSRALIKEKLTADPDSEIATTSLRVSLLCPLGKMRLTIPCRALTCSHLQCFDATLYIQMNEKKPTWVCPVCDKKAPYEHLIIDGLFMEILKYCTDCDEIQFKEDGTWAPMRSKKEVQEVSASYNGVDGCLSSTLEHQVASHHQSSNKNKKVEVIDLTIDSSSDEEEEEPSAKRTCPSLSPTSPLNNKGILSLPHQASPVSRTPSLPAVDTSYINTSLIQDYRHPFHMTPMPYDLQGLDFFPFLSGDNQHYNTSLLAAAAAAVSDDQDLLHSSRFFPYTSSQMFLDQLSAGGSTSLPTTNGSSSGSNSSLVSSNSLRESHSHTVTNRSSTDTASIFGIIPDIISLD
UniProt P61956: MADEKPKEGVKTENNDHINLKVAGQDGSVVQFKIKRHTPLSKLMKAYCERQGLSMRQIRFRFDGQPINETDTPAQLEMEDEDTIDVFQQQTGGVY

B1: SAE1 (protein, UniProt Q9UBE0 1-346)
chain: MVEKEEAGGGISEEEAAQYDRQIRLWGLEAQKRLRASRVLLVGLKGLGAEIAKNLILAGVKGLTMLDHEQVTPEDPGAQFLIRTGSVGRNRAEASLERAQNLNPMVDVKVDTEDIEKKPESFFTQFDAVCLTCCSRDVIVKVDQICHKNSIKFFTGDVFGYHGYTFANLGEHEFVEEKTKVAKVSQGVEDGPDTKRAKLDSSETTMVKKKVVFCPVKEALEVDWSSEKAKAALKRTTSDYFLLQVLLKFRTDKGRDPSSDTYEEDSELLLQIRNDVLDSLGISPDLLPEDFVRYCFSEMAPVCAVVGGILAQEIVKALSQRDPPHNNFFFFDGMKGNGIVECLGPK
B2: UBA2 (protein, UniProt Q9UBT2 1-640)
chain: MALSRGLPRELAEAVAGGRVLVVGAGGIGCELLKNLVLTGFSHIDLIDLDTIDVSNLNRQFLFQKKHVGRSKAQVAKESVLQFYPKANIVAYHDSIMNPDYNVEFFRQFILVMNALDNRAARNHVNRMCLAADVPLIESGTAGYLGQVTTIKKGVTECYECHPKPTQRTFPGCTIRNTPSEPIHCIVWAKYLFNQLFGEEDADQEVSPDRADPEAAWEPTEAEARARASNEDGDIKRISTKEWAKSTGYDPVKLFTKLFKDDIRYLLTMDKLWRKRKPPVPLDWAEVQSQGEETNASDQQNEPQLGLKDQQVLDVKSYARLFSKSIETLRVHLAEKGDGAELIWDKDDPSAMDFVTSAANLRMHIFSMNMKSRFDIKSMAGNIIPAIATTNAVIAGLIVLEGLKILSGKIDQCRTIFLNKQPNPRKKLLVPCALDPPNPNCYVCASKPEVTVRLNVHKVTVLTLQDKIVKEKFAMVAPDVQIEDGKGTILISSEEGETEANNHKKLSEFGIRNGSRLQADDFLQDYTLLINILHSEDLGKDVEFEVVGDAPEKVGPKQAEDAAKSITNGSDDGAQPSTSTAQEQDDVLIVDSDEEDSSNNADVSEEERSRKRKLDEKENLSAKRSRIEQKEELDDVIALD

Each molecule was assayed against T1, DHX36 (human (endogenous in SKOV3 or COV504 cells)) (UniProt Q9H2U1) (assay: affinity purification with mass spectrometry; co-IP with anti-DHX36 antibody from cell lysate followed by MS).
T1 sequence: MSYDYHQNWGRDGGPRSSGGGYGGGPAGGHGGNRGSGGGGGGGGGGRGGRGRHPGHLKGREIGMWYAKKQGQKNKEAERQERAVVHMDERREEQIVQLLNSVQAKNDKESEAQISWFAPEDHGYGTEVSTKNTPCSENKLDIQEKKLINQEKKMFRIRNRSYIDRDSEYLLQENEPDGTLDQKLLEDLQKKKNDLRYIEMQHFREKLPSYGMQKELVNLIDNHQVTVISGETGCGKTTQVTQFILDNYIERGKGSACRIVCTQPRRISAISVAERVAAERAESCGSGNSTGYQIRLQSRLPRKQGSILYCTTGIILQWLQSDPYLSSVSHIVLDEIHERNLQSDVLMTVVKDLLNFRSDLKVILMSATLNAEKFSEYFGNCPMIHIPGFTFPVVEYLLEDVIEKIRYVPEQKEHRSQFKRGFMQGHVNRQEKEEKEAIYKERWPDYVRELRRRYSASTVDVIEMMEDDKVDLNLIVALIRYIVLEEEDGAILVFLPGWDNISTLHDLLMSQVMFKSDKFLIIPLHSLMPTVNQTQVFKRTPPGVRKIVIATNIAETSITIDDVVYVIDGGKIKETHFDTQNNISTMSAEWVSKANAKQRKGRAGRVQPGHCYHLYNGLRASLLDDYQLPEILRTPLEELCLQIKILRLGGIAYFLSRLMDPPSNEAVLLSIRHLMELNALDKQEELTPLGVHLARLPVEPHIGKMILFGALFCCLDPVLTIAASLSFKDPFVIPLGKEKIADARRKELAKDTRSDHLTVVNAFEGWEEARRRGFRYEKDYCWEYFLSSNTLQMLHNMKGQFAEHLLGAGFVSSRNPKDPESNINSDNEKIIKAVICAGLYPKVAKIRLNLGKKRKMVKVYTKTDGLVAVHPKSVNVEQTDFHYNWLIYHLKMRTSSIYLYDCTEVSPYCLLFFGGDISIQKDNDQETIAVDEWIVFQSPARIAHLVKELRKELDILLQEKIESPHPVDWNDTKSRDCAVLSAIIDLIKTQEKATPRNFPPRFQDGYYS

binding, binds:
PIAS1 (from UniProt O75925 1-651)
SUMO2 (from UniProt P61956)
B1
B2
